Our source for the binding values is publication PMC8977741.

In this experiment the target is T1, endogenous TRAF6 of RAW 264.7 cells (mouse (endogenous in RAW 264.7)) (UniProt P70196).
T1 sequence: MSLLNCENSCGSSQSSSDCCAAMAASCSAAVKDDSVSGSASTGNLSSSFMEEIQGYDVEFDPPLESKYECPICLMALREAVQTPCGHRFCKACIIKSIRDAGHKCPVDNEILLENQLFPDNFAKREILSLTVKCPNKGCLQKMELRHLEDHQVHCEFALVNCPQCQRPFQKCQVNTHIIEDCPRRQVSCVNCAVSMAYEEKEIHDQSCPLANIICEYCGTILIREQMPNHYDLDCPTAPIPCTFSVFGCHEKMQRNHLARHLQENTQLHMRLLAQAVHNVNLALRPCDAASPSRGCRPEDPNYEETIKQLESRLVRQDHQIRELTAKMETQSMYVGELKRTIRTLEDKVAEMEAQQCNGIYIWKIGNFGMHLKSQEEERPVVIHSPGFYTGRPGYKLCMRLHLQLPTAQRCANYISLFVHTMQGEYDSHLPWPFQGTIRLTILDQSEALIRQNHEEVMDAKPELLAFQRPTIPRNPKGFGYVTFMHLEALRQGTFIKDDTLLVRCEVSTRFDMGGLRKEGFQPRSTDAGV
Put plainly: co-IP; IP of endogenous TRAF6 with anti-TRAF6 from RAW 264.7 cells transduced with the PEP-NASP or NASP, without or with LPS stimulation; immunoblot with anti-His, anti-NASP or anti-TRAF6. (In general: A western blot detects proteins with antibodies after separation by electrophoresis.)

No constants are given. Whether binding was seen depends on the method and setting. In cells and extracts the contact can be indirect. Some binding calls cover weakened binding; strength is not graded here. Tags and fused reporters may be left off the sequences shown.

B1: His-PEP-NASP (sNASP residues 1 ~ 31 fused with PEP-1) (peptide)
chain: KETWWETWWTEWSQPKKKRKVMAMESTATAAVAAELVSADKIEDVPAPSTSA
Take B1: the binding result was “binds”.
